Substitutions are numbered along the chain they refer to. For at least one entry, the source does not settle the construct or the ends of the probe. Where cells or extracts were used, other partners may take part. For part of these data: The comparison behind a weaker result is the experiment's own reference, which may not be listed here. For part of these data: At least one verdict was read from the data and is not stated in words by the source. For part of these data: Tags and fusion partners may be left off the protein sequences shown.
Experiments:
Test in all cases: pull-down
LAP2α/2RE R86E,R88E = target: T1, LAP2α/2RE R86E,R88E (UniProt P42166); conditions: with RPA in nuclear extract; biotin-ssDNA (one third of 30 pmol) on streptavidin Sepharose, nuclear extract in NETN buffer, 4 °C 8 h or room temperature 1 h; composition not given; protein in an extract; label: 5' biotin; single-stranded DNA
T1 sequence (looked up, limits assumed): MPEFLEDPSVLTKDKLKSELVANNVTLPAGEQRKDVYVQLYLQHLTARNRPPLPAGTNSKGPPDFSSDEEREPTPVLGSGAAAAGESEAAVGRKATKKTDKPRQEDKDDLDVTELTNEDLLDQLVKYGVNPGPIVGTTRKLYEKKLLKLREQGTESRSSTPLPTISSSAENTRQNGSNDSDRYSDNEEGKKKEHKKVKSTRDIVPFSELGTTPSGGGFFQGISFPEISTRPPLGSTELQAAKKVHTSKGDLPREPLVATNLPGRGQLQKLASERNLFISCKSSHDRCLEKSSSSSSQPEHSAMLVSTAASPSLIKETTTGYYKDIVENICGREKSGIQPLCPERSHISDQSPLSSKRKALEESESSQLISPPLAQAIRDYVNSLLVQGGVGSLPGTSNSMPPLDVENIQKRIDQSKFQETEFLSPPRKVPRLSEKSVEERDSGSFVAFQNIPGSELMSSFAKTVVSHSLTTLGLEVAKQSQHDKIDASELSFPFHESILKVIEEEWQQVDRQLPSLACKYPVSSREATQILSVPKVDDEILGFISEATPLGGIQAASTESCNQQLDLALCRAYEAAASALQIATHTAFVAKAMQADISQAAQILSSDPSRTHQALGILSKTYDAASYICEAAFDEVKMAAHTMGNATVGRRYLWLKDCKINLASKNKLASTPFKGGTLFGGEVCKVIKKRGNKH

Chains of the proteins cited; added tags and fusions are not shown. A line that says so, or that is headed by a name, gives the form on record, which may keep a tag or linker.
UniProt P09874, whole entry: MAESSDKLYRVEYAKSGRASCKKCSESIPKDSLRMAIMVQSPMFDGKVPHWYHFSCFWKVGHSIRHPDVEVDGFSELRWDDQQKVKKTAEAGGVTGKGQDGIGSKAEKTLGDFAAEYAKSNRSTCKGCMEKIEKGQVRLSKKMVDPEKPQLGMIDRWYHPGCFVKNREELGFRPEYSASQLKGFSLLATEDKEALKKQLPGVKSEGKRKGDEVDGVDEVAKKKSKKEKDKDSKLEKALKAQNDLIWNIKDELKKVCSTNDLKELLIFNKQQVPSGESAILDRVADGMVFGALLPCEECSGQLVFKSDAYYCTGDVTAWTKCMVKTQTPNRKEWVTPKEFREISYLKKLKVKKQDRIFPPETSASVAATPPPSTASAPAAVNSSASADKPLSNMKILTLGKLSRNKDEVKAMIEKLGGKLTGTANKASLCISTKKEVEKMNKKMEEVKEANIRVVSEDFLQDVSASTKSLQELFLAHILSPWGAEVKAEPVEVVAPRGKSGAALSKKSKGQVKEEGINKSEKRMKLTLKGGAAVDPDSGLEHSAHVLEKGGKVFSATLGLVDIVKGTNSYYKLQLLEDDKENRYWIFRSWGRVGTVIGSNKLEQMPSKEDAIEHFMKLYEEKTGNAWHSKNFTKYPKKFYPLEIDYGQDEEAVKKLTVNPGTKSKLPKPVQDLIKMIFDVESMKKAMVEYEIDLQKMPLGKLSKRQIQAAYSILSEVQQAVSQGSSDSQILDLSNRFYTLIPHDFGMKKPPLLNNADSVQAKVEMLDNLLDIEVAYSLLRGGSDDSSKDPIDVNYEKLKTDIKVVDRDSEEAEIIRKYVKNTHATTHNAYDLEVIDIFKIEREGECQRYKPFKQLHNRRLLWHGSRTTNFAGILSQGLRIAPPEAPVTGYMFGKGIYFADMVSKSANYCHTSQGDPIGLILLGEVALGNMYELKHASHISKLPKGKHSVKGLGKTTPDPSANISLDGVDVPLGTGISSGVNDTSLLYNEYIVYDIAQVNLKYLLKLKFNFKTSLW
RPA (RPA1/RPA2/RPA3) endogenous, human, one chain, as listed by the source, chain 3 of 3: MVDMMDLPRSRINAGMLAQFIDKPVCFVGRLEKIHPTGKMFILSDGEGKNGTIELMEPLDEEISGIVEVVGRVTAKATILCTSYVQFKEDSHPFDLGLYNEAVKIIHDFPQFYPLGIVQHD
RPA (RPA1/RPA2/RPA3) endogenous, human, one chain, as listed by the source, chain 1 of 3: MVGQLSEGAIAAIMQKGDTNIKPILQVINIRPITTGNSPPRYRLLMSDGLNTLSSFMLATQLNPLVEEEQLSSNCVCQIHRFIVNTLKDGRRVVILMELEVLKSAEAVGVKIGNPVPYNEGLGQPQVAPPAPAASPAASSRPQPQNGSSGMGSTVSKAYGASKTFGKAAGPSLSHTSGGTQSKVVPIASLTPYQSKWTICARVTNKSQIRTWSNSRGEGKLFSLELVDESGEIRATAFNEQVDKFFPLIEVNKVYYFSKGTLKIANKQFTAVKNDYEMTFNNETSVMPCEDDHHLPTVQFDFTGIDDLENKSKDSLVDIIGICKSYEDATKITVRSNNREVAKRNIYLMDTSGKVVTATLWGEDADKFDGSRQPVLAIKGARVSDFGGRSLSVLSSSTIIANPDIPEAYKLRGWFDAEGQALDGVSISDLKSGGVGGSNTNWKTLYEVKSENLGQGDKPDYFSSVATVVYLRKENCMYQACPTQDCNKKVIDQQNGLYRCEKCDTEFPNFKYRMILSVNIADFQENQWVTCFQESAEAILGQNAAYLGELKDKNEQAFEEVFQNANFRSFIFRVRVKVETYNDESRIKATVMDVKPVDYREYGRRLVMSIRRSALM
Rpa endogenous, mouse (mouse (MEF nuclear extract)), one chain, as listed by the source, chain 2 of 3: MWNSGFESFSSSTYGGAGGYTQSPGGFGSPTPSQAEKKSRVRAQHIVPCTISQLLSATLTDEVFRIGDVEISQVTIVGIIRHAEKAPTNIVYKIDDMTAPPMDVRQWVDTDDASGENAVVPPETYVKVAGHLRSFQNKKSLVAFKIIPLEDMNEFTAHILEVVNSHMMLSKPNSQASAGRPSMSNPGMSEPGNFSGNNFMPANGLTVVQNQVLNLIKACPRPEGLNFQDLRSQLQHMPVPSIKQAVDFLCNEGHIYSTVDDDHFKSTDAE
Rpa endogenous, mouse (mouse (MEF nuclear extract)), one chain, as listed by the source, chain 1 of 3: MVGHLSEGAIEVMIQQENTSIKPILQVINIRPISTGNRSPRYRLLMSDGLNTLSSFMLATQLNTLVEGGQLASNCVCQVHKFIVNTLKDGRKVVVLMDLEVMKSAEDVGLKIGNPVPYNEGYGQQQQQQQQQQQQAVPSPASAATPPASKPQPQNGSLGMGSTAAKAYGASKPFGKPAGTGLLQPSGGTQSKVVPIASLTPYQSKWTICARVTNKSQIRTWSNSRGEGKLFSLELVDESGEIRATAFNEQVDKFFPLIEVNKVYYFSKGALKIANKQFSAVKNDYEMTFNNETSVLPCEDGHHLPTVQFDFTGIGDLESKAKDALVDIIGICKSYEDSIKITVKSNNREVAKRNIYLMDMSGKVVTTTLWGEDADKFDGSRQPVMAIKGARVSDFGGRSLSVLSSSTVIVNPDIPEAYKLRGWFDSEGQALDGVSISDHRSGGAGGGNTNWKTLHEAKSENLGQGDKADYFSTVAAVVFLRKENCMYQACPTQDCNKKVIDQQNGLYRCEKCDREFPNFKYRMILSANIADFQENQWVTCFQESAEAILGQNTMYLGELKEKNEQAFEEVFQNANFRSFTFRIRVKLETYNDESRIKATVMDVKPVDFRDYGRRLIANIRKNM
Rpa endogenous, mouse (mouse (MEF nuclear extract)), one chain, as listed by the source, chain 3 of 3: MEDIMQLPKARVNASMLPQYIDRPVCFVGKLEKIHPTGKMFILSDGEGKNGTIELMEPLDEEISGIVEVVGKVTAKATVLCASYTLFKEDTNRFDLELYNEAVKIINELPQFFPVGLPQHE
RPA (RPA1/RPA2/RPA3) endogenous, human, one chain, as listed by the source, chain 2 of 3: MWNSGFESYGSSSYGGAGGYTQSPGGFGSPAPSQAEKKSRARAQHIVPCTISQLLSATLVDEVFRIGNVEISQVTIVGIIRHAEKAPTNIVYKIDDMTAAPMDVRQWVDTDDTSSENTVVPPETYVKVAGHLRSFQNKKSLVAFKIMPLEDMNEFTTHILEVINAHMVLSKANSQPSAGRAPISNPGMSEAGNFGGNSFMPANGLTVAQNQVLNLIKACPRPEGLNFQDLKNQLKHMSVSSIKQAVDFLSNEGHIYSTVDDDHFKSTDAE

LAP2α/wt re-expressed = target: T2, LAP2α/wt re-expressed (UniProt P42166); conditions: with RPA in nuclear extract; biotin-ssDNA (one third of 30 pmol) on streptavidin Sepharose, nuclear extract in NETN buffer, 4 °C 8 h or room temperature 1 h; composition not given; protein in an extract; label: 5' biotin; single-stranded DNA
T2 sequence (looked up, limits assumed): T1 sequence (looked up, limits assumed) with E86R, E88R

LAP2α endogenous = target: T3, LAP2α endogenous (UniProt P42166); conditions: nuclear extract, rucaparib enhances; biotin-ssDNA (one third of 30 pmol) on streptavidin Sepharose, nuclear extract in NETN buffer, 4 °C 8 h or room temperature 1 h; composition not given; protein in an extract; label: 5' biotin; single-stranded DNA
T3 sequence (looked up, limits assumed): T1 sequence (looked up, limits assumed) with E86R, E88R

[1] = test system: RPA (RPA1/RPA2/RPA3) endogenous, human; conditions: biotin-ssDNA (one third of 30 pmol) on streptavidin Sepharose, nuclear extract in NETN buffer, 4 °C 8 h or room temperature 1 h, composition not given, protein in an extract, label: 5' biotin, single-stranded DNA
PARP1 = PARP1 (UniProt P09874); conditions: nuclear extract, rucaparib 10 uM enhances; biotin-ssDNA (one third of 30 pmol) on streptavidin Sepharose, nuclear extract in NETN buffer, 4 °C 8 h or room temperature 1 h; composition not given; protein in an extract; label: 5' biotin; single-stranded DNA
[2] = test system: Rpa endogenous, mouse (mouse (MEF nuclear extract)); conditions: biotin-ssDNA (one third of 30 pmol) on streptavidin Sepharose, nuclear extract in NETN buffer, 4 °C 8 h or room temperature 1 h, composition not given, protein in an extract, label: 5' biotin, single-stranded DNA

“TGCAGCTGGCACGACAGGTTTTAATGAATCGGCCAACGCGCGGGGAGAGGCGGTTTGCGTATTGGGCGCT [70-nt ssDNA]”: binds (LAP2α/2RE R86E,R88E); binds (LAP2α/wt re-expressed); binds (LAP2α endogenous). “TGCAGCTGGCACGACAGGTTTTAATGAATCGGCCAACGCGCGGGGAGAGGCGGTTTGCGTATTGGGCGCT [70-nt ssDNA]”: binds more weakly ([1]; LAP2α knockdown + rucaparib); binds more weakly ([1]; LAP2α knockdown); binds ([1]; LAP2α present, nuclear extract). “TGCAGCTGGCACGACAGGTTTTAATGAATCGGCCAACGCGCGGGGAGAGGCGGTTTGCGTATTGGGCGCT [70-nt ssDNA]”: binds more weakly ([1]; LAP2α-depleted + LAP2α/2RE, not restored); binds ([1]; LAP2α-depleted + LAP2α/wt, binding restored); binds ([1]; rucaparib 10 uM 4 h, enhanced loading). “TGCAGCTGGCACGACAGGTTTTAATGAATCGGCCAACGCGCGGGGAGAGGCGGTTTGCGTATTGGGCGCT [70-nt ssDNA]”: binds (PARP1); binds ([2]; Lap2α+/+ MEF extract); binds more weakly ([2]; Lap2α-/- MEF extract).

From paper PMC8883701
